Results deposited as PubChem BioAssay AID1159596 (NIAID, 2016)
Aim: 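Which toll-like receptor signalling genes are needed for TNF promoter activity driven by peptidoglycan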 (primary screen). System: human THP1 B5 monocytic reporter cells made macrophage-like with PMA. Reagents: single siRNA against human genes. Time to read-out: assayed 48 to 72 hours after siRNA transfection; peptidoglycan stimulation lasted 4 hours. Conditions: Staphylococcus aureus peptidoglycan for 4 hours; dose not given. Detection: 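Mean over replicate screens of a robust z per siRNA from the dual luciferase TNF promoter reporter after 4 h peptidoglycan, median/MAD normalised, relative to negative controls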. Reading the numbers: TNF reporter z-score: higher = stronger TNF promoter reporter response to peptidoglycan. Active means: In these data the active calls have TNF reporter z-score, replicate mean at about -1.5 or lower, or at about 1.5 or higher. Calls: active = reporter shifted beyond cut (either direction); inactive = reporter near control level.
Here is one part, drawn at random, of 756 reagents. 143 of them (19%) were called active. 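Active means the reporter moved past about ±1.5 in either direction; scores are per single siRNA, not per gene; peptidoglycan dose not given.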 Reagents against one gene are numbered here. No sequences are given here. The record does not give: the amount of reagent.

ETS1 (GeneID 2113) #1 gave TNF reporter z-score, replicate mean -0.571; inactive. Depletion of ETS1 (GeneID 2113) #2 resulted in: TNF reporter z-score, replicate mean -0.842; inactive. Depletion of ETS1 (GeneID 2113) #3 resulted in: TNF reporter z-score, replicate mean -0.639; inactive. ETS1 (GeneID 2113) #4 showed TNF reporter z-score, replicate mean -0.786; inactive. With knock-down of ETS1 (GeneID 2113) #5 the results were TNF reporter z-score, replicate mean 1.49; inactive. With knock-down of ETS1 (GeneID 2113) #6, the screen gave TNF reporter z-score, replicate mean -2.37; active.

With knock-down of SIGIRR (GeneID 59307) #1, the record shows TNF reporter z-score, replicate mean -0.46; inactive. Knock-down of SIGIRR (GeneID 59307) #2 gave: TNF reporter z-score, replicate mean 0.451; inactive. After knock-down of SIGIRR (GeneID 59307) #3, the record shows TNF reporter z-score, replicate mean -1.08; inactive. Depletion of SIGIRR (GeneID 59307) #4 gave: TNF reporter z-score, replicate mean -0.159; inactive. Depletion of SIGIRR (GeneID 59307) #5 came out at: TNF reporter z-score, replicate mean 1.75; active. Against SIGIRR (GeneID 59307) #6, the entry reads TNF reporter z-score, replicate mean -0.36; inactive.

2 entries from above, ordered by “TNF reporter z-score, replicate mean”, lowest first.
ETS1 (GeneID 2113) #2: TNF reporter z-score, replicate mean = -0.842; call = inactive
ETS1 (GeneID 2113) #3: TNF reporter z-score, replicate mean = -0.639; call = inactive

The list goes on:
For MAPK12 (GeneID 6300) #1, the entry reads TNF reporter z-score, replicate mean -0.226; inactive. After knock-down of MAPK12 (GeneID 6300) #2 the results were TNF reporter z-score, replicate mean -0.191; inactive. MAPK12 (GeneID 6300) #3 scored TNF reporter z-score, replicate mean -0.0814; inactive. For MAPK12 (GeneID 6300) #4, the entry reads TNF reporter z-score, replicate mean -1.46; inactive. MAPK12 (GeneID 6300) #5 scored TNF reporter z-score, replicate mean 0.387; inactive. Against MAPK12 (GeneID 6300) #6, the entry reads TNF reporter z-score, replicate mean -1.27; inactive.

Depletion of TICAM2 (GeneID 353376) #1 resulted in: TNF reporter z-score, replicate mean -0.817; inactive. Against TICAM2 (GeneID 353376) #2 the deposit lists TNF reporter z-score, replicate mean 0.74; inactive. Against TICAM2 (GeneID 353376) #3 the deposit lists TNF reporter z-score, replicate mean 0.255; inactive. Against TICAM2 (GeneID 353376) #4, the entry reads TNF reporter z-score, replicate mean 0.169; inactive. TICAM2 (GeneID 353376) #5 scored TNF reporter z-score, replicate mean -0.164; inactive. TICAM2 (GeneID 353376) #6 showed TNF reporter z-score, replicate mean -0.167; inactive.
